# Laboratory results from the supplement of paper PMC10849652.
# The chains behind the UniProt entries cited, without tags or fusion partners. Where a name states a change or a piece, a line headed by the entry shows the natural chain unless it says otherwise.
# UniProt P04003: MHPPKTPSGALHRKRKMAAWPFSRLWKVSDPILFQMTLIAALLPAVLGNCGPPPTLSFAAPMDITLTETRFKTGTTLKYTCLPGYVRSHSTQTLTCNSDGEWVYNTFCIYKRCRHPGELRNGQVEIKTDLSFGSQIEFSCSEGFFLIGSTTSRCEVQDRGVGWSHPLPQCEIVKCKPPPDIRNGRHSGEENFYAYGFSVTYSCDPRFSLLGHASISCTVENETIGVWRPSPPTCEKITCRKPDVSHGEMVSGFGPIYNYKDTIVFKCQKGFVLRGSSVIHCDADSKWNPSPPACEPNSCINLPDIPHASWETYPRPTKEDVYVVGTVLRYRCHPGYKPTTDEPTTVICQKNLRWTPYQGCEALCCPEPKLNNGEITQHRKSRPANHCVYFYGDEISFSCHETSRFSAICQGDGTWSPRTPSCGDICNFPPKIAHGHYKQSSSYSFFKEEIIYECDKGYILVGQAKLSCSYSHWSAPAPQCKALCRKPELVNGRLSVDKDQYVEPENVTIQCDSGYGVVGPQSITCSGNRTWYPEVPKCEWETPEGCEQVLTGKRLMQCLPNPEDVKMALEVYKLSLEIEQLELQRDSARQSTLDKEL
# UniProt P49069: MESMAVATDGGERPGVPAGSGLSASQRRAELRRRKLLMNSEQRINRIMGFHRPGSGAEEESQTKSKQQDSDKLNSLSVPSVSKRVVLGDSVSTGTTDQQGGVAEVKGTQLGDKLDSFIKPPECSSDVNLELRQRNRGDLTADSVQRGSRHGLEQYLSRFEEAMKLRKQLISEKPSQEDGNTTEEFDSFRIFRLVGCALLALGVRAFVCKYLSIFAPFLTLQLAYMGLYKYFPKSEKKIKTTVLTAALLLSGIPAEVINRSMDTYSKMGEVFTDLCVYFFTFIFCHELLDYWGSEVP
# UniProt Q5SNV9: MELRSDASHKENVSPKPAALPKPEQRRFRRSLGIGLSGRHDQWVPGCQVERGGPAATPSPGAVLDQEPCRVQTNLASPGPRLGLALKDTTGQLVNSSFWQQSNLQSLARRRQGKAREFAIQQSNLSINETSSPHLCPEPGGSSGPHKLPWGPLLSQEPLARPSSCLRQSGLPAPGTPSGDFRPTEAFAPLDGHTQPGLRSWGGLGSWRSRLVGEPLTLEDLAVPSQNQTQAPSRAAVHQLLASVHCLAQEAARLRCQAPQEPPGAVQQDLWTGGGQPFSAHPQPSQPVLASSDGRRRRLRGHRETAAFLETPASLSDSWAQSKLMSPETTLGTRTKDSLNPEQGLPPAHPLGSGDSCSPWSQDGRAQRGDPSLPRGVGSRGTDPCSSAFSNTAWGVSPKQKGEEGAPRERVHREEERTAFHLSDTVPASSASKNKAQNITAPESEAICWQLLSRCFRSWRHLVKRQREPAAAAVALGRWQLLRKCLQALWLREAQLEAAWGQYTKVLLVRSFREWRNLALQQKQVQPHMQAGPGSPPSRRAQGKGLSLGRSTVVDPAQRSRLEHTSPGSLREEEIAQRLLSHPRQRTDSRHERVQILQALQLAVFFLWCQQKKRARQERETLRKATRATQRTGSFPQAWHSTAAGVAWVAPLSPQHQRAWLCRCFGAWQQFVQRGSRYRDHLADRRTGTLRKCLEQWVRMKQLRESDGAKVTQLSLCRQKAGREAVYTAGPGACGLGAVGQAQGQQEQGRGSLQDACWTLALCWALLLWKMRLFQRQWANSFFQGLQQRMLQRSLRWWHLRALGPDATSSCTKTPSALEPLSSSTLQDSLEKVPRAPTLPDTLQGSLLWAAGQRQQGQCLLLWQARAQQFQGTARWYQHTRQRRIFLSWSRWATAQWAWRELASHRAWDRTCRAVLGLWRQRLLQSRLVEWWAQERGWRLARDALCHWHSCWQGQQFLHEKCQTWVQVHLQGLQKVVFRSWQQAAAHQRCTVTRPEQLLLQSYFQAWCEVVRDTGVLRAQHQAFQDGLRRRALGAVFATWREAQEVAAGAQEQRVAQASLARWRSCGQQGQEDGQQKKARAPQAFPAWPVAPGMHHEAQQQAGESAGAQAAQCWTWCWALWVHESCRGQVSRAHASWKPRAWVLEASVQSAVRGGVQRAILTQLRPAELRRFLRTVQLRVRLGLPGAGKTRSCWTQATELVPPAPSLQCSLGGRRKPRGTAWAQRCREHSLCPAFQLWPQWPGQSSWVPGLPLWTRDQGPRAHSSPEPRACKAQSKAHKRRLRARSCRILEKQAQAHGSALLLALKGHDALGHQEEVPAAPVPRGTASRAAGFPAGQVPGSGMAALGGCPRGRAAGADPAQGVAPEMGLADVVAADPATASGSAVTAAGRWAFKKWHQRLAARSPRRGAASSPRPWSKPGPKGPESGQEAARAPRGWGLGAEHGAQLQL
# UniProt Q2NKX9: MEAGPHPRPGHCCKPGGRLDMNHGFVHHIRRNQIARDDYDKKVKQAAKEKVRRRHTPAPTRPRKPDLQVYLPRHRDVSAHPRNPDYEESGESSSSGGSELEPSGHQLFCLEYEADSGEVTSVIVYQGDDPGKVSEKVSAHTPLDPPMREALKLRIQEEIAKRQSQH
# UniProt Q13555: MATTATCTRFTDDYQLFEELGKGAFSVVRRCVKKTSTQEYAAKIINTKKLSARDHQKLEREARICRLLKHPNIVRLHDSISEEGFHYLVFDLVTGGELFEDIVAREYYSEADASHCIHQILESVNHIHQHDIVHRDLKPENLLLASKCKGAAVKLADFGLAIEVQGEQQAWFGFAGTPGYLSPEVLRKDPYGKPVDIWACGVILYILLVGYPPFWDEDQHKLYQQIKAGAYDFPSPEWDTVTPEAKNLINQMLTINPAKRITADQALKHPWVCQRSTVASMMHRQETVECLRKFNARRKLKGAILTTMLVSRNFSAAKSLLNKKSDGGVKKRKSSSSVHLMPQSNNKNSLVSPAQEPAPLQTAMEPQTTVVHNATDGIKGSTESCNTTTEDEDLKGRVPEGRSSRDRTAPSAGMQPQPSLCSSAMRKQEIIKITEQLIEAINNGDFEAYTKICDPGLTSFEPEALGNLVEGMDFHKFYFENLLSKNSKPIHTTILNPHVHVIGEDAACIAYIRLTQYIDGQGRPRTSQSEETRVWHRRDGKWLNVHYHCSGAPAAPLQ
# UniProt Q9BRJ6: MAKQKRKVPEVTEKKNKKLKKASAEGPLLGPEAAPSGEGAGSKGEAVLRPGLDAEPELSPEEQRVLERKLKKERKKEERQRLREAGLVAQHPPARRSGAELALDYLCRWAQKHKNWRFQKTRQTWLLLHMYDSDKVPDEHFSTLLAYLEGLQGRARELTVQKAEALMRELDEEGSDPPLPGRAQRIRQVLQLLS
# UniProt Q13895: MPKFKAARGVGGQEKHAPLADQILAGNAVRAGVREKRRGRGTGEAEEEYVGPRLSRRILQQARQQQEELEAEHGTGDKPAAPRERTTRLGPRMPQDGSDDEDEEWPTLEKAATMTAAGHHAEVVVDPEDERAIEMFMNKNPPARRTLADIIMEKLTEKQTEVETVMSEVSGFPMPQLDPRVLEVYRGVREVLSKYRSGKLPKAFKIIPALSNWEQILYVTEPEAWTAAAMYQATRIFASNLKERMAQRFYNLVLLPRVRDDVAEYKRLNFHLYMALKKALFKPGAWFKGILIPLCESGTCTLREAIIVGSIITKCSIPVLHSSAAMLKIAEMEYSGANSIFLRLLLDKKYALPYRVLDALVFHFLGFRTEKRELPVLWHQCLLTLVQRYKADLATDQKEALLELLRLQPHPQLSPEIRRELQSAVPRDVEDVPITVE
# UniProt Q9H0W9: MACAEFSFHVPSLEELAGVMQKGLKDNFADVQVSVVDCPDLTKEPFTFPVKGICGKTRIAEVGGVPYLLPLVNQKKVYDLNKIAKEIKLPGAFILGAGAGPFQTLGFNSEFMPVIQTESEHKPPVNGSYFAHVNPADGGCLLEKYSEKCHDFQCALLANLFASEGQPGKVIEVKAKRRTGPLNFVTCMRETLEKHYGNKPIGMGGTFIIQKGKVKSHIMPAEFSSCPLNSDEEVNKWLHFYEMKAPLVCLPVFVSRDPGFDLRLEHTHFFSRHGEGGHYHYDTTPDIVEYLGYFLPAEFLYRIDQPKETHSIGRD
# UniProt P04632: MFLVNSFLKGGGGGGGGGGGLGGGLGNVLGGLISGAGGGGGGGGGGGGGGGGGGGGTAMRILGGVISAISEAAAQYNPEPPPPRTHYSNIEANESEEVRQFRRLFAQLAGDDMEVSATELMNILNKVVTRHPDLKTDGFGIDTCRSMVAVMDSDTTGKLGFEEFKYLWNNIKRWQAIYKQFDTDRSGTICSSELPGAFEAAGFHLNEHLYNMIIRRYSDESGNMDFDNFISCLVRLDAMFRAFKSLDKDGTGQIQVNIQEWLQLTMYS
# UniProt P22676: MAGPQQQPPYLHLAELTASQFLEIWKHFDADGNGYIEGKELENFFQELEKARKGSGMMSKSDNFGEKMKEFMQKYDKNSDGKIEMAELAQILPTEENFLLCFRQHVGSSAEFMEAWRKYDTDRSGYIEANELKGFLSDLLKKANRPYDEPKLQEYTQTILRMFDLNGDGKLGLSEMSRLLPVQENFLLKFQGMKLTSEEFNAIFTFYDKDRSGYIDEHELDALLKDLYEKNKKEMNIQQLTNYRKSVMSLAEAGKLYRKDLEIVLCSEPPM
# UniProt Q9BUW7: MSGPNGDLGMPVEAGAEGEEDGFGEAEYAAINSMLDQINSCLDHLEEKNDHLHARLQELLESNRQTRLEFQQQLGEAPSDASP
# UniProt Q13901: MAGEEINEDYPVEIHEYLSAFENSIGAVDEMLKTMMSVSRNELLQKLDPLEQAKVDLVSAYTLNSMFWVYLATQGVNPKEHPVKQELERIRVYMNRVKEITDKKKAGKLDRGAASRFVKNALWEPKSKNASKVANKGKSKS
# UniProt Q5BKX5: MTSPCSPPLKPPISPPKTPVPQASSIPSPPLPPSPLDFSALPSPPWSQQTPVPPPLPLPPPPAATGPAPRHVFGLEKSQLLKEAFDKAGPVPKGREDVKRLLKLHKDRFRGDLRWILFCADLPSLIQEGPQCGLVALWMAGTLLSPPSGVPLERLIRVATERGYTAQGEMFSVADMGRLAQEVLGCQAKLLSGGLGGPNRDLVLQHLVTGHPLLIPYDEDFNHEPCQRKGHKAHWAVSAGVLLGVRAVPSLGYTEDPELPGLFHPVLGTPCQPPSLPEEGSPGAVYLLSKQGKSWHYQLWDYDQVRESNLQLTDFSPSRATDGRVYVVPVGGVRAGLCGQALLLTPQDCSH
# UniProt Q9H3H3: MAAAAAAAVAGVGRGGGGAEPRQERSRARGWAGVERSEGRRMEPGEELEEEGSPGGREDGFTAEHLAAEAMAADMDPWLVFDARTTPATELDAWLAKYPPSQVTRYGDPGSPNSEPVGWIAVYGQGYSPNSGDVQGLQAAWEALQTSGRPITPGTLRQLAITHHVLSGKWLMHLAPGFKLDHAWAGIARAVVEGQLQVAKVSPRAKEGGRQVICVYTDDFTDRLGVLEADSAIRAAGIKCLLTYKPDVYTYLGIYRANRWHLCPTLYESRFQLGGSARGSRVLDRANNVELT
# UniProt Q96GQ5: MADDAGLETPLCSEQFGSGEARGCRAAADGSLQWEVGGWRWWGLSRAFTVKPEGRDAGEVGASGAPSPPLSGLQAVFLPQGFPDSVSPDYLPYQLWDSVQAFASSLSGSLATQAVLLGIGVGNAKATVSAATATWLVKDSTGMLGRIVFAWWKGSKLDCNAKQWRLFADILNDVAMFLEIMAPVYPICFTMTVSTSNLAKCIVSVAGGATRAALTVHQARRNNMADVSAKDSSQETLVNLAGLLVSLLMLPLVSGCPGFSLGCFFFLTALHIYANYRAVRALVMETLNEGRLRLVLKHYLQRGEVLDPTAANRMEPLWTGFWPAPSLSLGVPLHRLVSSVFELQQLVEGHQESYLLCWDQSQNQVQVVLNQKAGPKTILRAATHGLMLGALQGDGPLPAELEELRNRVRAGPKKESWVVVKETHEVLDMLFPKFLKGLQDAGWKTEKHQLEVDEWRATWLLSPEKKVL
# UniProt Q14444, whole entry, looked up: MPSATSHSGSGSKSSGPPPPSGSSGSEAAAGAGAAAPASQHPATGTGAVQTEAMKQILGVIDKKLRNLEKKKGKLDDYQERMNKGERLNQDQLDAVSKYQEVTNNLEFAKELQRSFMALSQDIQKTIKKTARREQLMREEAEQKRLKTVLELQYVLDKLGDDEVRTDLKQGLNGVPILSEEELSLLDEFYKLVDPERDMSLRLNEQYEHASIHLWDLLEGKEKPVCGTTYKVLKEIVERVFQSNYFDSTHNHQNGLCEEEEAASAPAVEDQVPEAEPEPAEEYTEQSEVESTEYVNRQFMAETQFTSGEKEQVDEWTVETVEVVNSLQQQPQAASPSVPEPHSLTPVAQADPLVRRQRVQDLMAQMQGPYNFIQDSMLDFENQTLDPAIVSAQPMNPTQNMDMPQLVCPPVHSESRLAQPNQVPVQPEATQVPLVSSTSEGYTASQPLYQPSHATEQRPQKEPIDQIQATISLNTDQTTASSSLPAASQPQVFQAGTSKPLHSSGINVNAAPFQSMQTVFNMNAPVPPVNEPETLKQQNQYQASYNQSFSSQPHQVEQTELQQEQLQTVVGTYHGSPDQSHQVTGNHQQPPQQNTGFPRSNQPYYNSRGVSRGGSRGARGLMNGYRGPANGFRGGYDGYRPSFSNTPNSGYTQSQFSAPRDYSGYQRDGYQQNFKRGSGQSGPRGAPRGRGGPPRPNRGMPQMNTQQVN
# This is one part of the list.
# What was measured:
# Assay in all cases: log2 fold change, soluble protein after heating vs DMSO (PISA); higher = thermal stabilisation; K562 lysate, 10 uM; active = over 0.2 and 3.5 SD of the protein, either way, in both replicates (recomputed)
# [1] = compound: NCC(=O)Nc1ccc(-n2nc(C(F)(F)F)cc2-c2ccc3c(ccc4ccccc43)c2)cc1
# Summary of the method: (§1)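 Thermal stability, expressed as log-two fold change relative to solvent controls, is given from duplicates. Crude K562 extract in PBS pH 7.4 with 1 mM MgCl2, at 1 mg/mL protein, was treated with 10 μM compound for 30 min and heated in aliquots for 3 min across 48°C-58°C. After pooling, adjustment to 0.5% NP-40 at 4°C and centrifugation at 21,000xg for 90 min, supernatant protein was measured by TMTpro 16plex LC-MS/MS with channel sums equalised.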
# vorinostat = compound: O=C(CCCCCCC(=O)Nc1ccccc1)NO [vorinostat]
# Summary of the method: as §1
# silmitasertib = compound: O=C(O)c1ccc2c(c1)nc(Nc1cccc(Cl)c1)c1ccncc12 [silmitasertib]
# Summary of the method: as §1
# [2] = compound: O=C1NC(=O)C(c2cnc3ccccn23)=C1c1cn2c3c(cc(F)cc13)CN(C(=O)N1CCCCC1)CC2
# Summary of the method: as §1
# entospletinib = compound: c1cn2cc(-c3ccc4cn[nH]c4c3)nc(Nc3ccc(N4CCOCC4)cc3)c2n1 [entospletinib]
# Summary of the method: as §1
Target,log2 fold change [1],log2 fold change (vorinostat),log2 fold change (silmitasertib),log2 fold change [2],log2 fold change (entospletinib)
C1orf226 isoform 2 (UniProt A1L170),inactive: -0.087,,,,
BTN3A3 (UniProt O00478),inactive: -0.252,inactive: 0.077,inactive: 0.002,inactive: -0.052,
CAPN7 (UniProt Q9Y6W3),inactive: -0.049,inactive: -0.153,inactive: 0.013,inactive: 0.022,inactive: 0.024
C4BPA (UniProt P04003),inactive: 0.018,inactive: 0.168,inactive: -0.044,inactive: -0.127,
C19orf25 (UniProt Q9UFG5),inactive: 0.134,inactive: 0.207,inactive: -0.059,inactive: 0.127,
C5orf51 (UniProt A6NDU8),inactive: 0.042,active: -0.501,inactive: 0.036,inactive: -0.003,inactive: 0.015
C18orf25 (UniProt Q96B23),inactive: 0.03,inactive: 0.089,inactive: -0.147,inactive: -0.034,inactive: 0.036
CAAP1 (UniProt Q9H8G2),inactive: -0.023,inactive: -0.033,inactive: -0.047,inactive: 0.011,inactive: -0.003
CAMLG (UniProt P49069),inactive: -0.009,inactive: -0.15,inactive: -0.027,inactive: 0.006,inactive: 0.001
CANT1 (UniProt Q8WVQ1),inactive: -0.046,inactive: 0.116,inactive: -0.031,inactive: -0.062,inactive: 0.011
CAPNS1 (UniProt K7ES78),inactive: -0.234,inactive: -0.011,inactive: -0.037,inactive: 0.141,
C1orf167 isoform 2 (UniProt Q5SNV9),inactive: 0.169,inactive: -0.092,inactive: -0.023,inactive: -0.124,
C1orf112 (UniProt Q9NSG2),inactive: -0.075,inactive: -0.095,inactive: -0.084,inactive: 0.003,inactive: -0.037
C2orf68 (UniProt Q2NKX9),inactive: 0.055,inactive: 0.064,inactive: -0.028,inactive: 0.019,inactive: -0.009
CA8 (UniProt P35219),inactive: 0.023,inactive: -0.014,inactive: 0.031,inactive: 0.028,inactive: 0.027
CAMK2G isoform 8 (UniProt Q13555),inactive: -0.044,inactive: -0.208,inactive: 0.087,inactive: 0.084,inactive: 0.004
CAPZB isoform 2 (UniProt P47756),inactive: 0.012,inactive: 0.02,inactive: 0.001,inactive: -0.018,inactive: 0.01
CAB39 (UniProt Q9Y376),inactive: -0.037,inactive: 0.113,inactive: -0.006,inactive: -0.013,inactive: 0.005
CAMSAP1 isoform 3 (UniProt Q5T5Y3),inactive: 0.037,inactive: -0.029,inactive: -0.01,inactive: -0.031,inactive: -0.027
C7orf50 (UniProt Q9BRJ6),inactive: 0.02,inactive: 0.044,inactive: -0.031,inactive: -0.044,inactive: 0.007
BYSL (UniProt Q13895),inactive: -0.012,inactive: -0.079,inactive: 0.054,inactive: -0.019,inactive: 0.017
C11orf54 (UniProt Q9H0W9),inactive: 0.008,inactive: 0.155,inactive: -0.048,inactive: -0.01,inactive: -0.009
CAPNS1 (UniProt P04632),inactive: -0.08,inactive: 0.07,inactive: -0.007,inactive: -0.039,inactive: 0.033
CALB2 (UniProt P22676),inactive: 0.067,inactive: 0.156,inactive: 0.017,inactive: 0.063,inactive: 0.019
C6orf47 (UniProt O95873),inactive: 0.006,inactive: 0.159,inactive: 0.018,inactive: -0.022,inactive: -0.098
CALU isoform 3 (UniProt O43852),inactive: 0.003,inactive: 0.142,inactive: -0.029,inactive: -0.023,inactive: -0.002
C3orf38 (UniProt Q5JPI3),inactive: -0.021,inactive: 0.004,inactive: -0.038,inactive: 0.014,inactive: 0.037

Target,log2 fold change [1],log2 fold change (vorinostat),log2 fold change (silmitasertib),log2 fold change [2],log2 fold change (entospletinib)
C9orf16 (UniProt Q9BUW7),inactive: 0.089,inactive: 0.161,inactive: -0.091,inactive: -0.083,inactive: 0.038
C19orf53 (UniProt Q9UNZ5),inactive: -0.146,inactive: 0.073,inactive: 0.098,inactive: -0.002,inactive: -0.005
C1orf122 (UniProt Q6ZSJ8),inactive: -0.024,inactive: -0.047,inactive: 0.034,inactive: 0.024,inactive: -0.035
C3 (UniProt P01024),inactive: 0.024,inactive: -0.098,inactive: 0.008,inactive: 0.062,inactive: -0.036
CACYBP (UniProt Q9HB71),inactive: 0.009,inactive: 0.087,inactive: -0.01,inactive: -0.013,inactive: 0.011
CAND2 (UniProt O75155),inactive: 0.003,inactive: -0.033,inactive: -0.007,inactive: -0.002,inactive: -0.032
C4A (UniProt P0C0L4),inactive: 0.179,inactive: 0.055,inactive: 0.023,inactive: -0.034,inactive: 0.05
CAMK1 (UniProt Q14012),inactive: -0.13,inactive: 0.027,inactive: -0.059,inactive: 0.062,inactive: 0.115
BUB1 (UniProt O43683),inactive: 0.096,inactive: -0.189,inactive: 0.021,inactive: -0.022,inactive: -0.009
CARD11 (UniProt Q9BXL7),inactive: -0.113,active: -0.406,inactive: 0.001,inactive: 0.004,inactive: -0.031
C8orf33 isoform 2 (UniProt Q9H7E9),inactive: -0.014,inactive: -0.031,inactive: -0.067,inactive: 0.003,inactive: 0.026
CACUL1 (UniProt Q86Y37),inactive: 0.176,active: -0.543,inactive: 0.024,inactive: -0.081,inactive: -0.056
BZW1 isoform 3 (UniProt Q7L1Q6),inactive: -0.027,inactive: -0.044,inactive: 0.03,inactive: -0.026,inactive: 0.022
C1D (UniProt Q13901),inactive: 0.046,inactive: 0.051,inactive: -0.009,inactive: 0.074,inactive: -0.079
C19orf54 (UniProt Q5BKX5),inactive: -0.052,active: -0.381,inactive: -0.004,inactive: -0.006,inactive: 0.009
C1GALT1C1 (UniProt Q96EU7),inactive: -0.028,inactive: 0.134,inactive: 0.003,inactive: -0.011,inactive: 0.025
C15orf41 (UniProt Q9Y2V0),inactive: -0.124,active: -0.362,inactive: -0.011,inactive: -0.012,inactive: 0.04
C11orf68 isoform 3 (UniProt Q9H3H3),inactive: -0.017,inactive: -0.149,inactive: -0.021,inactive: -0.043,inactive: -0.033
C1orf131 isoform 5 (UniProt Q8NDD1),inactive: 0.059,active: -0.445,inactive: -0.025,inactive: 0.039,inactive: -0.013
CAMSAP2 (UniProt Q08AD1),inactive: 0.055,inactive: -0.172,inactive: 0.064,inactive: 0.035,inactive: 0.052
C16orf58 (UniProt Q96GQ5),inactive: -0.031,inactive: 0.239,inactive: 0.075,inactive: -0.001,inactive: -0.019
CALCOCO1 (UniProt Q9P1Z2),inactive: 0.071,inactive: -0.031,inactive: 0.056,inactive: -0.001,inactive: 0.015
CAPZB (UniProt P47756),inactive: -0.001,inactive: 0.062,inactive: -0.007,inactive: -0.013,inactive: 0.015
CAMKK1 isoform 2 (UniProt Q8N5S9),inactive: 0.006,inactive: -0.255,inactive: 0.072,inactive: -0.007,inactive: -0.078
CAPRIN1 (UniProt Q14444),inactive: 0.03,inactive: 0.153,inactive: -0.014,inactive: -0.016,inactive: 0.015
C2orf88 (UniProt Q9BSF0),,,,inactive: 0.034,
C17orf53 (UniProt Q8N3J3),,inactive: -0.253,inactive: -0.086,inactive: 0.047,

# An excerpt of these results, tab-delimited:
Target	log2 fold change [1]	log2 fold change (vorinostat)	log2 fold change (silmitasertib)	log2 fold change [2]	log2 fold change (entospletinib)
C19orf53 (UniProt Q9UNZ5)	inactive: -0.146	inactive: 0.073	inactive: 0.098	inactive: -0.002	inactive: -0.005
C1orf122 (UniProt Q6ZSJ8)	inactive: -0.024	inactive: -0.047	inactive: 0.034	inactive: 0.024	inactive: -0.035
C3 (UniProt P01024)	inactive: 0.024	inactive: -0.098	inactive: 0.008	inactive: 0.062	inactive: -0.036
CACYBP (UniProt Q9HB71)	inactive: 0.009	inactive: 0.087	inactive: -0.01	inactive: -0.013	inactive: 0.011
CAND2 (UniProt O75155)	inactive: 0.003	inactive: -0.033	inactive: -0.007	inactive: -0.002	inactive: -0.032
C4A (UniProt P0C0L4)	inactive: 0.179	inactive: 0.055	inactive: 0.023	inactive: -0.034	inactive: 0.05
CAMK1 (UniProt Q14012)	inactive: -0.13	inactive: 0.027	inactive: -0.059	inactive: 0.062	inactive: 0.115
BUB1 (UniProt O43683)	inactive: 0.096	inactive: -0.189	inactive: 0.021	inactive: -0.022	inactive: -0.009
CARD11 (UniProt Q9BXL7)	inactive: -0.113	active: -0.406	inactive: 0.001	inactive: 0.004	inactive: -0.031
C8orf33 isoform 2 (UniProt Q9H7E9)	inactive: -0.014	inactive: -0.031	inactive: -0.067	inactive: 0.003	inactive: 0.026
CACUL1 (UniProt Q86Y37)	inactive: 0.176	active: -0.543	inactive: 0.024	inactive: -0.081	inactive: -0.056
BZW1 isoform 3 (UniProt Q7L1Q6)	inactive: -0.027	inactive: -0.044	inactive: 0.03	inactive: -0.026	inactive: 0.022
C1D (UniProt Q13901)	inactive: 0.046	inactive: 0.051	inactive: -0.009	inactive: 0.074	inactive: -0.079
C19orf54 (UniProt Q5BKX5)	inactive: -0.052	active: -0.381	inactive: -0.004	inactive: -0.006	inactive: 0.009
